Reference: PubChem BioAssay AID504808 (Drosophila RNAi Screening Center, 2011)
In all, the deposit lists about 21,000 reagents; shown is a random part of those with a known target gene and a result. Of all reagents, 18 (0.084%) were called active. 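Raw counts without plate normalisation, one of two replicates; the ratio scores behind the calls were not deposited.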 Entries without a mark were called inactive. Names joined by + are all predicted targets of the reagent. Reagent sequences are not shown. Not stated in the record: the amount of reagent, the time to read-out.

Screen: 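Genes whose loss lifts activity of an E2F-responsive reporter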 (primary screen)
System: Drosophila S2 cells
Knock-down reagent: long dsRNA against Drosophila genes
Detection: 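Firefly luciferase driven by E2F sites, normalised to Renilla luciferase on the same minimal promoter, measured by plate reader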
Reading the numbers: E2F firefly: higher = more E2F reporter activity; Renilla normaliser: higher = more normaliser reporter signal
Hit rule: 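a knock-down counted as active when the firefly/Renilla E2F signal rose above 50%, a threshold chosen arbitrarily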

After knock-down of CG10163 [DRSC09710], the screen gave E2F firefly, rep 1 = 1.02e5; Renilla normaliser, rep 1 = 4303.
After knock-down of CG13124 [DRSC02220], the screen gave E2F firefly, rep 1 = 78595; Renilla normaliser, rep 1 = 3558.
Syx7 [DRSC11763] showed E2F firefly, rep 1 = 72238; Renilla normaliser, rep 1 = 3694.
After knock-down of CG3345 [DRSC00596], the record shows E2F firefly, rep 1 = 92459; Renilla normaliser, rep 1 = 3767.
Silencing of klu [DRSC11357] gave: E2F firefly, rep 1 = 1.21e5; Renilla normaliser, rep 1 = 8193.
After knock-down of Dus3 [DRSC02059], the record shows E2F firefly, rep 1 = 1.02e5; Renilla normaliser, rep 1 = 4279.
For MFS15 [DRSC06523], the values are E2F firefly, rep 1 = 1.52e5; Renilla normaliser, rep 1 = 4763.
For CG5292 [DRSC15763], the entry reads E2F firefly, rep 1 = 1.22e5; Renilla normaliser, rep 1 = 6735.
CG3557 [DRSC00614] scored E2F firefly, rep 1 = 86514; Renilla normaliser, rep 1 = 3579.
For mars [DRSC06656], the values are E2F firefly, rep 1 = 74051; Renilla normaliser, rep 1 = 3873.
CG3061 [DRSC15460] gave E2F firefly, rep 1 = 98319; Renilla normaliser, rep 1 = 5538.
With knock-down of Hexo2 [DRSC18671], the screen gave E2F firefly, rep 1 = 56356; Renilla normaliser, rep 1 = 4068.
Knock-down of DNAlig1 [DRSC04518] came out at: E2F firefly, rep 1 = 79025; Renilla normaliser, rep 1 = 3887.
mRpL54 [DRSC04545] showed E2F firefly, rep 1 = 76287; Renilla normaliser, rep 1 = 3565.
Akt [DRSC14108] showed E2F firefly, rep 1 = 81739; Renilla normaliser, rep 1 = 3922.
CG32163 [DRSC09442] scored E2F firefly, rep 1 = 1.30e5; Renilla normaliser, rep 1 = 4429.
For CG16739 [DRSC06621], the values are E2F firefly, rep 1 = 1.16e5; Renilla normaliser, rep 1 = 3629.
Mgat4a [DRSC09326] gave E2F firefly, rep 1 = 1.25e5; Renilla normaliser, rep 1 = 4368.
With knock-down of Mgat4a [DRSC11070], the screen gave E2F firefly, rep 1 = 1.47e5; Renilla normaliser, rep 1 = 7703.
CG12426 [DRSC14516] showed E2F firefly, rep 1 = 1.32e5; Renilla normaliser, rep 1 = 6808.
Coq4 + frc [DRSC10381] showed E2F firefly, rep 1 = 1.57e5; Renilla normaliser, rep 1 = 8186.
Against Coq4 + frc [DRSC10382], the values are E2F firefly, rep 1 = 75200; Renilla normaliser, rep 1 = 4434.
aust [DRSC02558] scored E2F firefly, rep 1 = 1.38e5; Renilla normaliser, rep 1 = 4987.
With knock-down of sdk [DRSC18831], the screen gave E2F firefly, rep 1 = 2121; Renilla normaliser, rep 1 = 672.
With knock-down of CG42254 (retired record) [DRSC06194], the screen gave E2F firefly, rep 1 = 1.07e5; Renilla normaliser, rep 1 = 4244.
CG1983 [DRSC15410] showed E2F firefly, rep 1 = 1.35e5; Renilla normaliser, rep 1 = 7197.
After knock-down of CG15877 [DRSC08485], the screen gave E2F firefly, rep 1 = 99754; Renilla normaliser, rep 1 = 4188.
Lrrk [DRSC15816] gave E2F firefly, rep 1 = 1.49e5; Renilla normaliser, rep 1 = 7744.
